# Measured values reported in the supplement of paper PMC11732987, “Enantioselective OTUD7B fragment discovery through chemoproteomics screening and high-throughput optimisation” (Communications Chemistry, 2025).
# This is one part of the list. The data scatter; read single values as rough.
# Compound: ClCC(=O)N[C@@H]1CCCc2ccccc12
# Assay: log2 mean competition ratio of IA-DTB cysteine labelling (DMSO/compound) (log2 ratio); higher = stronger cysteine engagement by compound
# Settings: 50 µM; treatment time: 4 h; cell line lysate: HEK293T
# Procedure: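 IA-DTB competitive cysteine chemoproteomics in HEK293T RIPA lysate. Lysates were treated with compound 29 or 30 at 50 or 200 µM for 4 h, then IA-DTB (500 µM, 1 h), trypsin-digested, NeutrAvidin-enriched and analysed by diaPASEF. Competition ratio = intensity DMSO / intensity compound (n=4 treated, n=64 DMSO); binding: mean log2 CR ≥ 1 and p ≤ 0.05 plus QC filters. Target is the cysteine site.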
row,Target,log2 mean competition ratio
1,NOP58 C205 (UniProt Q9Y2X3),0.293
2,NOL10 C202 (UniProt Q9BSC4),-0.158
3,NLRX1 C331 (UniProt Q86UT6),0.44
4,NIPBL C2374 (UniProt Q6KC79),0.496
5,NASP C254 (UniProt P49321),-0.167
6,NOA1 C364 (UniProt Q8NC60),0.379
7,NFAT5 C108 (UniProt O94916),-0.0659
8,NIPBL C1889 (UniProt Q6KC79),-0.366
9,NAT1 C148 (UniProt P18440),0.137
10,NCAPG C966 (UniProt Q9BPX3),-0.224
11,NFATC4 C350 (UniProt Q14934),-0.129
12,NAV1 C1508 (UniProt Q8NEY1),-0.161
13,NEK3 C504 (UniProt P51956),0.182
14,NIT2 C44 (UniProt Q9NQR4),0.099
15,NFKB2 C4 (UniProt Q00653),0.0884
16,NOA1 C272 (UniProt Q8NC60),-0.0586
17,NEK9 C878 (UniProt Q8TD19),-0.014
18,NATD1 C17 (UniProt Q8N6N6),0.145
19,NFX1 C661 (UniProt Q12986),-0.193
20,NIN C297 (UniProt Q8N4C6),-0.217
21,NDC80 C449 (UniProt O14777),0.377
22,NAV1 C1446 (UniProt Q8NEY1),-0.169
23,NFX1 C1067 (UniProt Q12986),0.0514
24,NGLY1 C21 (UniProt Q96IV0),-0.647
25,NIBAN2 C512 (UniProt Q96TA1),-0.0689
26,NCAPD3 C330 (UniProt P42695),0.0353

# Copied from the list.
# NIPBL C2374 (UniProt Q6KC79) | log2 mean competition ratio: 0.496
# NEK3 C504 (UniProt P51956) | log2 mean competition ratio: 0.182
